Data as given in PubChem BioAssay AID1259254 (NCATS, 2017).
The deposit covers about 59,000 reagents; shown is a part drawn at random. Over the whole deposit, about 1,550 (2.6%) were called active. 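G2 share is only a proxy for re-replication; each gene was hit by three separate siRNAs, and active genes were retested.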 The numbers tell different reagents against one gene apart. Not all columns of the deposit are shown. No sequences are given here. Not given: the amount of reagent.

Aim: 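Finding genes that stop cells copying their DNA twice in one cycle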 (primary screen)
Cells: human HCT116 colorectal cancer cells
Knock-down reagent: single siRNA against human genes
Duration: 3 days
Detection: 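Nuclei stained with Hoechst and imaged; cell-cycle phase assigned by DNA content; G2 share scaled per plate, non-targeting siRNA 0%, GMNN siRNA 100%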
Reading the numbers: G2 robust z-score: higher = more G2 cells, more excess DNA replication
Rule for the call: 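An siRNA counts as active if its G2 robust z-score lies at least 5 MADs above the screen median; here such calls match roughly 38% of GMNN control or more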

With DDX46 #1, what was measured?
G2 robust z-score: 0.0544; call: inactive

With DDX46 #2, what was measured?
G2 robust z-score: 3.2; call: inactive

What did the screen give for DDX46 #3?
G2 robust z-score: 0.108; call: inactive

What did the screen give for HCAR3 #1?
G2 robust z-score: 7.09; call: active

For HCAR3 #2, what does the deposit list?
G2 robust z-score: 5.48; call: active

What is on record for HCAR3 #3?
G2 robust z-score: -0.794; call: inactive

How did the screen score LIMD2 #1?
G2 robust z-score: -0.0779; call: inactive

For LIMD2 #2, what does the deposit list?
G2 robust z-score: 1.96; call: inactive

Which result is listed for LIMD2 #3?
G2 robust z-score: -1.15; call: inactive

What did the screen give for OR5H6 #1?
G2 robust z-score: -0.476; call: inactive

For OR5H6 #2, what was measured?
G2 robust z-score: 6.44; call: active

For OR5H6 #3, what does the deposit list?
G2 robust z-score: -1.09; call: inactive

Quoted from above, 5 entries:
LIMD2 #1 | G2 robust z-score = -0.0779; call = inactive
LIMD2 #2 | G2 robust z-score = 1.96; call = inactive
LIMD2 #3 | G2 robust z-score = -1.15; call = inactive
OR5H6 #1 | G2 robust z-score = -0.476; call = inactive
OR5H6 #2 | G2 robust z-score = 6.44; call = active

The list goes on:
How did the screen score XCL2 #1?
G2 robust z-score: -0.248; call: inactive

For XCL2 #2, what was measured?
G2 robust z-score: -0.122; call: inactive

What is on record for XCL2 #3?
G2 robust z-score: -0.573; call: inactive

What is on record for H6PD #1?
G2 robust z-score: 0.0769; call: inactive

For H6PD #2, what was measured?
G2 robust z-score: 3.78; call: inactive

How did the screen score H6PD #3?
G2 robust z-score: 0.482; call: inactive

For B3GNT6 #1, what was measured?
G2 robust z-score: -0.89; call: inactive

With B3GNT6 #2, what does the deposit list?
G2 robust z-score: 0.475; call: inactive

What did the screen give for B3GNT6 #3?
G2 robust z-score: 1.42; call: inactive

For CYTOR #1, how do the results read?
G2 robust z-score: 0.464; call: inactive

What did the screen give for CYTOR #2?
G2 robust z-score: 1.33; call: inactive

With CYTOR #3, what does the deposit list?
G2 robust z-score: -0.0113; call: inactive

With COX5B #1, what does the deposit list?
G2 robust z-score: 0.453; call: inactive

With COX5B #2, what was measured?
G2 robust z-score: 0.636; call: inactive

Which result is listed for COX5B #3?
G2 robust z-score: -0.791; call: inactive

What is on record for GPR108 #1?
G2 robust z-score: -0.688; call: inactive

What is on record for GPR108 #2?
G2 robust z-score: -0.353; call: inactive

What is on record for GPR108 #3?
G2 robust z-score: 1.77; call: inactive
